The values below come from article PMC10859387.

Amino acid sequences for entries named in this document (tags omitted).
UniProt Q9WTL8: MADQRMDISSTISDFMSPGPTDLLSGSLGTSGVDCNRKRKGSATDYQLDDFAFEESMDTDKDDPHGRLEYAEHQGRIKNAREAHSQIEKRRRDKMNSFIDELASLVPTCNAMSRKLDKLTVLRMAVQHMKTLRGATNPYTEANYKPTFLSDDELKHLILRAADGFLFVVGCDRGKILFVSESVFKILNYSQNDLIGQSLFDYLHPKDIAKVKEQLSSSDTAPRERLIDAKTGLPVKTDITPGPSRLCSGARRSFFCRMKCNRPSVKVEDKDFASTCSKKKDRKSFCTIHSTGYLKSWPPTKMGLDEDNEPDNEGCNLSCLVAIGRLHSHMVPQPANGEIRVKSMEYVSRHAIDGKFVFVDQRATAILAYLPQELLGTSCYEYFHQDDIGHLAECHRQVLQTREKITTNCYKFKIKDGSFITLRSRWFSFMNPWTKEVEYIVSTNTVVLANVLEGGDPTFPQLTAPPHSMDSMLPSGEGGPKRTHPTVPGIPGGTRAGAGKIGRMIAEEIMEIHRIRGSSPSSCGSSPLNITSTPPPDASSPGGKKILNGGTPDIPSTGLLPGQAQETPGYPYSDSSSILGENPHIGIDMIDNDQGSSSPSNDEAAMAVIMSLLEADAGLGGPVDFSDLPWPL
UniProt P47806: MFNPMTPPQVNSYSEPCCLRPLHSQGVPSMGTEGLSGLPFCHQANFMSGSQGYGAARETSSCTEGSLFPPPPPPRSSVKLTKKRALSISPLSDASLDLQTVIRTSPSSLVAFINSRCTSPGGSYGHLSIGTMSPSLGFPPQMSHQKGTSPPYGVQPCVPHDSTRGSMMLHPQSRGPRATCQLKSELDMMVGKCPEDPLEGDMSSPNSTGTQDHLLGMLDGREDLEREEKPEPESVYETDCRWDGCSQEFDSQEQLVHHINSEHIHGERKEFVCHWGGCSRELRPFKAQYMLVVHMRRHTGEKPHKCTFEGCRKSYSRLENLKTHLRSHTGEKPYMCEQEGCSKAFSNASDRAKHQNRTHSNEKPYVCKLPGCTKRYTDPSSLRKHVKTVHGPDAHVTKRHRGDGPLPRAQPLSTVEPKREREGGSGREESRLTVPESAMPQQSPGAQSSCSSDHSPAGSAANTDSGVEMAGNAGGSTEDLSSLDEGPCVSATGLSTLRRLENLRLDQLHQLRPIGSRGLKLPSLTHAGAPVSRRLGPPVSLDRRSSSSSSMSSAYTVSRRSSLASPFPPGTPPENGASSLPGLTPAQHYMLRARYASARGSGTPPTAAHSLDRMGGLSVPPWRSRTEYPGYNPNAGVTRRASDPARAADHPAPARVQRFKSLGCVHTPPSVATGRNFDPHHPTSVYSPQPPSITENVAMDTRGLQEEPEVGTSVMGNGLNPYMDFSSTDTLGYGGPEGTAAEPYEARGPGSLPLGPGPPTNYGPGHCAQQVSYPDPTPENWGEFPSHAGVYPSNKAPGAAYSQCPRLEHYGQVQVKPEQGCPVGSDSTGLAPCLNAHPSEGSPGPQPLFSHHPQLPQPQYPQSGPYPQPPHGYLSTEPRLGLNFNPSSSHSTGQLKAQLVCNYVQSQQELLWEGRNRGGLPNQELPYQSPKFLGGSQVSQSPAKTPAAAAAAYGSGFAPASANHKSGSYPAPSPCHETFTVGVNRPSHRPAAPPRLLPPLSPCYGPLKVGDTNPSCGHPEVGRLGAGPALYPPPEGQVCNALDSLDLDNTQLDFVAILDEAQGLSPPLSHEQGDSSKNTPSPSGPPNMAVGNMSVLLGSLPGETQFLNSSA

No constants are given. Whether binding was seen depends on the method and setting. Binding seen in cells or lysates may run through a third protein. Some entries that bind do so weakly or less than the wild type. Tags and fused reporters may be left off the sequences shown.

This experiment has as its target T1, Sufu (inhibitor of fused) (mouse (endogenous in Hepa 1–6)) (UniProt Q9Z0P7).
T1 sequence: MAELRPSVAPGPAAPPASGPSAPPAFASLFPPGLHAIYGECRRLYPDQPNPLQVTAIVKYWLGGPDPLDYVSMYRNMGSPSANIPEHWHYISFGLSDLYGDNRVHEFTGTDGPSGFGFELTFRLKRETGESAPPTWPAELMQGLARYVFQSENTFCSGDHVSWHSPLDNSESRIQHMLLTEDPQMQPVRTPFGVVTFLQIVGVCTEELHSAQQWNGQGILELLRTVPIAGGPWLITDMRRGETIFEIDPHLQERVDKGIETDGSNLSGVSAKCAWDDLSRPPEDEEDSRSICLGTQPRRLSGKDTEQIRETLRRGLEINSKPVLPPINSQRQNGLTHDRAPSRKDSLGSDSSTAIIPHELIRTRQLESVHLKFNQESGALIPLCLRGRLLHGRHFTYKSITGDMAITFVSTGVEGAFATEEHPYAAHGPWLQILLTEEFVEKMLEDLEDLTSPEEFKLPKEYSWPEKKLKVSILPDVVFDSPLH
In words: co-IP; Hepa 1–6 cells with or without 400 pg/μL Shh for 24 h; whole-cell extracts in IP lysis buffer (20 mM Tris-HCl pH 7.5, 137 mM NaCl, 5 mM EDTA, 1% NP-40, 10% glycerol); antibody overnight at 4 °C, protein A/G plus agarose beads, western blot; which protein was precipitated is not told.

“Bmal1 (brain and muscle ARNT-like 1) (from UniProt Q9WTL8 1-632)”: the binding result is reported as “binds”.

In the case of Gli1 (from UniProt P47806 1-1111), the binding result is on record as “binds”.
